Test results reported in PubChem BioAssay AID505 (SGCOxCompounds, 2006).

By UniProt entry, the sequences of proteins in these tests, tags left out. Where a name states a change or a piece, a line headed by the entry shows the natural chain unless it says otherwise.
UniProt Q9P1W9: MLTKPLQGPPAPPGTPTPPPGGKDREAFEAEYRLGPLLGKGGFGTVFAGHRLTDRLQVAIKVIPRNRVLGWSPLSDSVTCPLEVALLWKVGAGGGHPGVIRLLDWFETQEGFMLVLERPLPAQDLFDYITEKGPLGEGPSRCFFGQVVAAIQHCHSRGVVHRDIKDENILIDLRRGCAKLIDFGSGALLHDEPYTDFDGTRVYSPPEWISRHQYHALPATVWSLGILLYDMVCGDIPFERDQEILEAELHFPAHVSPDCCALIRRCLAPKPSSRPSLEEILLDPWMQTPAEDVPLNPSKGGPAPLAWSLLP

Biological target: Serine/threonine-protein kinase pim-2 (Homo sapiens) (UniProt Q9P1W9)
Experiment: PIM2 kinase ligand binding by thermal shift, biophysical, human, melting temperature shift (AID 505)
Conditions: Recombinant PIM2 thermal shift, Tm change; at 10 µM; buffer 10 mM HEPES; pH 7.5; NaCl 150 mM; with 50 µM L-Arg/L-Glu (1:1); stronger effect = higher value

| Tm shift | Compound |
| --- | --- |
| 3.21 Celsius | CCC(CO)Nc1ccc2ncc(-c3cccc(NC(C)=O)c3)n2n1 (configuration not stated) |
| 5.46 Celsius | CCC(CO)Nc1ccc2ncc(-c3cccc(Cl)c3)n2n1 (configuration not stated) |
